Source: patent US20250003974

By UniProt entry, the sequences of proteins in these tests, tags left out. Where a name states a change or a piece, a line headed by the entry shows the natural chain unless it says otherwise.
UniProt O75417: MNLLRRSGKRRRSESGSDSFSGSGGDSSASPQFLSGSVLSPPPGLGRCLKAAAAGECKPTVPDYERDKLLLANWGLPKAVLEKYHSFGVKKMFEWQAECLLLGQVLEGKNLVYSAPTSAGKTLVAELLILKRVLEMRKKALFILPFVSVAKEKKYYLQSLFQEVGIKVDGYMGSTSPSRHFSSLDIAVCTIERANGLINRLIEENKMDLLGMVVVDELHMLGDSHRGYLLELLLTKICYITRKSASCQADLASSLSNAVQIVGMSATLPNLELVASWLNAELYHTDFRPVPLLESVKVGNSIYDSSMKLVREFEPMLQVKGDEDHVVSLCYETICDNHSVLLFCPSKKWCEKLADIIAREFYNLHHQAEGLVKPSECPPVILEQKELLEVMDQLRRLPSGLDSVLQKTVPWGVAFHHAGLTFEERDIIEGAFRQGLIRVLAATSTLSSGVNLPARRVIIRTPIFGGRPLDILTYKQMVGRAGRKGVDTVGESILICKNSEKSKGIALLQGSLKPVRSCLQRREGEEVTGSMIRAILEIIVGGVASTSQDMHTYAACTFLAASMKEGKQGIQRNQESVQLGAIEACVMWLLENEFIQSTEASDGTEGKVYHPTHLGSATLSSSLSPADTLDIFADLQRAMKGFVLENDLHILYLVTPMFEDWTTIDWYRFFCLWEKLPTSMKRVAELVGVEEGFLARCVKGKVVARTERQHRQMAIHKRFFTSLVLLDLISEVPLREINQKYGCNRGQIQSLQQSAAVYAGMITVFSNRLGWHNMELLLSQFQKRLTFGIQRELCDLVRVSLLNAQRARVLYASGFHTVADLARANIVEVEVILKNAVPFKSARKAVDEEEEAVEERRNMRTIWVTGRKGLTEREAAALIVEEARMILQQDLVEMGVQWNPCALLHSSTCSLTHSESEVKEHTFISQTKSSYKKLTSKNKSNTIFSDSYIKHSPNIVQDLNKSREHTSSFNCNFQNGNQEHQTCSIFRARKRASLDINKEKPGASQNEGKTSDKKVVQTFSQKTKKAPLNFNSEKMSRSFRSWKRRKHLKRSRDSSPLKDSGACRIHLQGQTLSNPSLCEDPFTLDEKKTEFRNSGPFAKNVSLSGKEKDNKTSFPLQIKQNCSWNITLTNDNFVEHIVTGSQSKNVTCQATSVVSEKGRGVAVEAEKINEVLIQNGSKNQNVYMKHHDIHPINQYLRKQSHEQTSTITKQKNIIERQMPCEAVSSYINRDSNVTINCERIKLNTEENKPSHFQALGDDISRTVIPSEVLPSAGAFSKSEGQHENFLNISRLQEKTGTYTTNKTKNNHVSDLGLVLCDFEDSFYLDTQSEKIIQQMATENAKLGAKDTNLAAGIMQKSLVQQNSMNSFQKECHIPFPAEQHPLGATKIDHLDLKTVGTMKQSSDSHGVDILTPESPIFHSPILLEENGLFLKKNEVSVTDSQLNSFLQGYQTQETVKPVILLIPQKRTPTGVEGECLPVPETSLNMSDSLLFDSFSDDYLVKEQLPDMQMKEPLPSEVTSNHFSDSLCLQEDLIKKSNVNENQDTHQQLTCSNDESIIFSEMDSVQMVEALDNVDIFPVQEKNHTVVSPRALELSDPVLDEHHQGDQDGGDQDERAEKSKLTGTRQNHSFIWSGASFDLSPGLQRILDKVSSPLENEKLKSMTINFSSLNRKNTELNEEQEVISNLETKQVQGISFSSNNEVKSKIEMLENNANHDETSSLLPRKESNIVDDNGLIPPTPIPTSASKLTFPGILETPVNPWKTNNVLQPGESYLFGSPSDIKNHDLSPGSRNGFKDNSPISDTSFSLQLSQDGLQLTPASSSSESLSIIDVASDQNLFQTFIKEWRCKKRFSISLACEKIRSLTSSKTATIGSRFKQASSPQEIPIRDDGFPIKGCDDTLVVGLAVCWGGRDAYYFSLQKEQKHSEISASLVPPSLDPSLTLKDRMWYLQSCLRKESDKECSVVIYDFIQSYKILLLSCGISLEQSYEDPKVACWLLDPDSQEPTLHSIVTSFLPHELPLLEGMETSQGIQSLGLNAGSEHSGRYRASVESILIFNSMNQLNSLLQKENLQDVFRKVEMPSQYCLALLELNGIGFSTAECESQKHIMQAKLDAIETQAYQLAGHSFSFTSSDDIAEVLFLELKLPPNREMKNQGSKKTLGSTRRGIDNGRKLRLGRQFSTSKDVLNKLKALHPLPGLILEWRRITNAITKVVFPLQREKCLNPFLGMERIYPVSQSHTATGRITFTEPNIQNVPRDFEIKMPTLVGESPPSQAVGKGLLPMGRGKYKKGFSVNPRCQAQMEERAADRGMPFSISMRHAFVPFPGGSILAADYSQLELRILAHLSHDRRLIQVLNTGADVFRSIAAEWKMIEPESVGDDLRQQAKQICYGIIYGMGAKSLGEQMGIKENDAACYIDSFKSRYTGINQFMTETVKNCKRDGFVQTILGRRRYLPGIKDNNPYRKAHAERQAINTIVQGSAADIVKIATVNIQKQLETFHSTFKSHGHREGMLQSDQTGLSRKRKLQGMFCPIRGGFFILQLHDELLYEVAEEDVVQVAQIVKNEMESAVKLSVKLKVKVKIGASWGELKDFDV

Molecular target: DNA polymerase theta (POLQ)-NanoLuc fusion (Homo sapiens) (UniProt O75417)
Test: binding assay
Conditions: meaning not stated in the examples, probably PS, protein in cells, folded or branched DNA

| Sequence | binding result (linkages marked * in the printed sequence (T*A*G*CGAAGGATGTGAACCTAATCCCTGCTCCCGCGGCC*G*A*T*C*T*G*C*C*G*GCCGCGGGA*G*C*A), indirect: electroporated DNA potentiates NanoBRET of pol-domain tracer 9686 in live HEK293 cells (coordinative binding)) | binding result (linkages marked * in the printed sequence (C*C*T*AATCCCTGCTCCCGCGGCC*G*A*T*C*T*G*C*C*G*GCCGCGGGA*G*C*A), indirect: delivered DNA potentiates NanoBRET of tracers 9686/9625 in HEK293 cells, behaves similarly to Lanky, printed sequence differs from SEQ 4 by one base, variant of Lanky (Lanky 1/Lanky 2) oligonucleotide) |
| --- | --- | --- |
| TAGCGAAGGATGTGAACCTAATCCCTGCTCCCGCGGCCGATCTGCCGGCCGCGGGAGCA [Lanky (Lanky 1/Lanky 2) oligonucleotide] | binds | – |
| CCTAATCCCTGCTCCCGCGGCCGATCTGCCGGCCGCGGGAGCA [Stubby oligonucleotide] | – | binds |

Where cells or extracts were used, other partners may take part.
